The record followed here is PMC4456606, “A conserved histidine modulates HSPB5 structure to trigger chaperone activity in response to stress-related acidosis” (eLife, 2015).

Results are given in words; binding and its absence hold for the method and conditions named. Some results given as binding are weak or reduced against the parent protein; the word gives no strength. For part of these data: Where a sequence is shown, tags or fusion partners need not be part of it.

Assay [1] addresses HSPB5-ACD (alpha-crystallin domain of HSPB5, residues 64-152) (human) (UniProt P02511). Nature of the assay: NMR solution structure; pH 7.5, 22°C; NOEs, RDCs and chemical shifts, RosettaOligomer; 50 mM sodium phosphate, 100 mM NaCl, 0.1 mM EDTA; both purified.
Assay [2] shares this target. The experiment in a line: 1H-15N HSQC NMR; 200 μM ACD, pH 6.5, 22°C, NMR buffer; populations of dimer and monomer peaks; dimer to monomers; both purified.
Assay [3] shares this target. The experiment in a line: 1H-15N HSQC NMR; 200 μM ACD, pH 7.5, 22°C, NMR buffer; populations of dimer and monomer peaks; dimer to monomers; both purified.
The target of assay [4] is H104K-ACD (HSPB5-ACD with His-104 replaced by Lys) (human) (UniProt P02511). Nature of the assay: 1H-15N HSQC NMR; 200 μM ACD, pH 6.5, 22°C, NMR buffer; populations of dimer and monomer peaks; dimer to monomers; both purified.
For assay [5] the target is unchanged. Nature of the assay: condition: >1 mM (samples containing 200 μM protein); 1H-15N HSQC NMR; 200 μM ACD, pH 7.5, 22°C, NMR buffer; populations of dimer and monomer peaks; dimer to monomers; both purified.
The target of assay [6] is HSPB5-ACD with His-83 mutated to Gln (human) (UniProt P02511). Nature of the assay: 1H-15N HSQC NMR; data not shown; pH dependence of the spectra of His-to-Gln mutant ACDs; both purified.
The target in assay [7] is HSPB5-ACD with His-111 mutated to Gln (human) (UniProt P02511). The description is as above.
The target in assay [8] is HSPB5-ACD with His-119 mutated to Gln (human) (UniProt P02511). Described as above.
For assay [9], the target named is HSPB5-ACD with His-101 mutated to Gln (human) (UniProt P02511). The description is as above.

B1: HSPB5-ACD (alpha-crystallin domain of HSPB5, residues 64-152) (domain or fragment, human, UniProt P02511 64-152, looked up)
chain: GLSEMRLEKDRFSVNLDVKHFSPEELKVKVLGDVIEVHGKHEERQDEHGFISREFHRKYRIPADVDPLTITSSLSSDGVLTVNGPRKQV
notes: HSPB5 (alphaB-crystallin), human, alpha-crystallin domain, residues 64-152; 15N- or 13C,15N-labelled for the NMR experiments; also called WT-ACD; WT-HSPB5-ACD; source: expressed and purified as described previously (Jehle et al., 2009)
Consider B1, for which the binding result in assay [1], in [2] and in assay [3] was “binds” throughout.

B2: H104K-ACD (HSPB5-ACD with His-104 replaced by Lys) (domain or fragment, human, UniProt P02511 64-152, looked up)
chain: GLSEMRLEKDRFSVNLDVKHFSPEELKVKVLGDVIEVHGKKEERQDEHGFISREFHRKYRIPADVDPLTITSSLSSDGVLTVNGPRKQV
notes: HSPB5 (alphaB-crystallin), human, alpha-crystallin domain, residues 64-152, with H104K; source: growth and purification similar to that of wild-type proteins (Jehle et al., 2009)
With B2, the binding entry in assay [4] and in [5] was “no binding” in each case.

B3: HSPB5-ACD with His-83 mutated to Gln (domain or fragment, UniProt P02511 64-152)
chain: GLSEMRLEKDRFSVNLDVKQFSPEELKVKVLGDVIEVHGKHEERQDEHGFISREFHRKYRIPADVDPLTITSSLSSDGVLTVNGPRKQV
In the case of B3, the binding entry in assay [6] was “binds”.

B4: HSPB5-ACD with His-111 mutated to Gln (domain or fragment, UniProt P02511 64-152)
chain: GLSEMRLEKDRFSVNLDVKHFSPEELKVKVLGDVIEVHGKHEERQDEQGFISREFHRKYRIPADVDPLTITSSLSSDGVLTVNGPRKQV
B4: the binding entry in assay [7] is recorded as “binds”.

B5: HSPB5-ACD with His-119 mutated to Gln (domain or fragment, UniProt P02511 64-152)
chain: GLSEMRLEKDRFSVNLDVKHFSPEELKVKVLGDVIEVHGKHEERQDEHGFISREFQRKYRIPADVDPLTITSSLSSDGVLTVNGPRKQV
As to B5, the binding result in [8] was “binds”.

B6: HSPB5-ACD with His-101 mutated to Gln (domain or fragment, UniProt P02511 64-152)
chain: GLSEMRLEKDRFSVNLDVKHFSPEELKVKVLGDVIEVQGKHEERQDEHGFISREFHRKYRIPADVDPLTITSSLSSDGVLTVNGPRKQV
Take B6: in assay [9], the binding result is on record as “binds”.
